Measured values from ChEMBL document CHEMBL5042535, “Structure-Based Design and Synthesis of N-Substituted 3-Amino-β-Carboline Derivatives as Potent αβ-Tubulin Degradation Agents” (J Med Chem, 2022).

What was measured:
A549 = test: Cytotoxicity in human A549 assessed as inhibition in cell growth measured after 24 hrs by MTT assay; type: functional, cell-based; conditions: A549, 24 h
[1] = Toxicity in mouse xenografted with human A2780T cells assessed as body weight loss at 10 to 30 mg/kg, iv treated 3 times a week; type: organism-based; conditions: in vivo, dose 10-30 mg/kg

In the case of CC(=O)O[C@H]1C(=O)[C@@]2(C)[C@H]([C@H](OC(=O)c3ccccc3)[C@]3(O)C[C@H](OC(=O)[C@H](O)[C@@H](NC(=O)c4ccccc4)c4ccccc4)C(C)=C1C3(C)C)[C@]1(OC(C)=O)CO[C@@H]1C[C@@H]2O [PACLITAXEL], the IC50 (A549) is reported as 24.2 nM and the Activity [1] is reported as “Non-Toxic”.
